Literature values, collected in PMC9540496 (Clinical Pharmacology and Therapeutics, 2022).

Settings: P‐gp interaction, dabigatran labeling; cited from earlier work

In the case of `CCCCc1oc2ccccc2c1C(=O)c1cc(I)c(OCCN(CC)CC)c(I)c1` [amiodarone], the “increase of dabigatran exposures” value is listed as 50–60%.
